{
  "source": "patent US7220576B2",
  "about": "“Methods and compositions for protein expression and purification” (Lifesensors, Inc., priority 2002, dated 2007)",
  "molecules": {"B1": {"name": "Hub1-GFP (protein)", "chain": "MGHHHHHHGSDSEVNQEAKPEVKPEVKPETHINLKVSDGSSEIFFKIKKTTPLRRLMEAFAKRQGKEMDSLRFLYDGIRIQADQAPEDLDMEDNDIIEAHREQIGG"}},
  "test_system": "yeast",
  "assay": "Expression and cleavage of UBL-GFP / SUMO-X-GFP fusions in yeast (Western blot)",
  "assay_type": "cell-based, S. cerevisiae",
  "conditions": "yeast BJ1991, copper induction",
  "data": [
    {"molecule": "B1", "values": [
      {"measurement": "Cleavage of fusion by endogenous hydrolases in yeast", "result": "not cleaved"}
    ]}
  ]
}
